Data reported in the supplement of paper PMC7666118.
This is one part of the list.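 Rule for the calls: active = dose-dependent thermal stabilisation significant by F-test of dose-response against flat model at 10% FDR; inactive = not significant.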

The chains behind the UniProt entries cited, without tags or fusion partners. Where a name states a change or a piece, a line headed by the entry shows the natural chain unless it says otherwise.
UniProt Q96FV9: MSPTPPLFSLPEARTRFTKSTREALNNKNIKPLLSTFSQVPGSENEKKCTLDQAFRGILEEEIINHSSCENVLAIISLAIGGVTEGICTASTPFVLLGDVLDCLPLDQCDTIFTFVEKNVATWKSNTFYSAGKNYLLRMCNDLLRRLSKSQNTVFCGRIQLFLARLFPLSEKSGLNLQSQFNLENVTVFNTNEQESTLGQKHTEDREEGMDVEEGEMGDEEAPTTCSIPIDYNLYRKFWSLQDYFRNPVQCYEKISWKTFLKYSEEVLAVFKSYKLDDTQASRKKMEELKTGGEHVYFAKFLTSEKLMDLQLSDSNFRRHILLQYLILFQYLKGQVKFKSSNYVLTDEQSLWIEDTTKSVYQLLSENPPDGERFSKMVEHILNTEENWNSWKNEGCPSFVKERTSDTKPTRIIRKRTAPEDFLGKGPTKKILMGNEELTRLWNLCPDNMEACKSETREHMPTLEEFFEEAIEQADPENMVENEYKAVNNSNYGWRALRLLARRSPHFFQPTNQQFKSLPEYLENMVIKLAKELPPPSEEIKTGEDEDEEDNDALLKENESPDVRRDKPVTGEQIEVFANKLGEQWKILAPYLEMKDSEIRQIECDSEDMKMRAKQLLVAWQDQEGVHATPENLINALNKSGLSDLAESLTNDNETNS
UniProt O00463: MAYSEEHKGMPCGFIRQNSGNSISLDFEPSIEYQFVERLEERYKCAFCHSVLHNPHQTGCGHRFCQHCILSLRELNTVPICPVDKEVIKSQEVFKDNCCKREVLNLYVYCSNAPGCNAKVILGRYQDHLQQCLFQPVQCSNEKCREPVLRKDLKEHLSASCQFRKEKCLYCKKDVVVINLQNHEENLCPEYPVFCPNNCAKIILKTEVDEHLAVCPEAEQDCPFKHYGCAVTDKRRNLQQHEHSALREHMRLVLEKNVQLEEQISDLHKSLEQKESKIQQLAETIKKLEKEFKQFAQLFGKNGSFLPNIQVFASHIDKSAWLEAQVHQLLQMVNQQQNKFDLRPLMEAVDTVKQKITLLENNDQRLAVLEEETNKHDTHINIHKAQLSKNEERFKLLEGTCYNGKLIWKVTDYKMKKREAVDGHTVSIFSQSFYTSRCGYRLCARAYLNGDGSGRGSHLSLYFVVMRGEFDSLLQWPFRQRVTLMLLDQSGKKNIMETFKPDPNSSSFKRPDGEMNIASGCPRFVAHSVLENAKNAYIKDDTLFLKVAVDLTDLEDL
UniProt Q9BRA2: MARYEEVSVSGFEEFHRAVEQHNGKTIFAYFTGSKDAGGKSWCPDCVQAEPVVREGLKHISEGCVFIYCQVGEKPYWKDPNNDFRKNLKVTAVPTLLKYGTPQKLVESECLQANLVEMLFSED
UniProt Q12792, whole entry: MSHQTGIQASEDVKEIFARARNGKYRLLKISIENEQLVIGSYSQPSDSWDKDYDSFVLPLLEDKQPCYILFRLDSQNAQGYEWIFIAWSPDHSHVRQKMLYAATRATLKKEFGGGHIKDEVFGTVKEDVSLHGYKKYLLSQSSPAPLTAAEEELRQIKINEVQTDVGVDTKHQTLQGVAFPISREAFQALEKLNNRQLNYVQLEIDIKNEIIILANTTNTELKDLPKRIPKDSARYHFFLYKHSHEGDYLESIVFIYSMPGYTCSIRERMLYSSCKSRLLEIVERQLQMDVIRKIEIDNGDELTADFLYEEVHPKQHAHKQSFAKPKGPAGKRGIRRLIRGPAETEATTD
UniProt P42166: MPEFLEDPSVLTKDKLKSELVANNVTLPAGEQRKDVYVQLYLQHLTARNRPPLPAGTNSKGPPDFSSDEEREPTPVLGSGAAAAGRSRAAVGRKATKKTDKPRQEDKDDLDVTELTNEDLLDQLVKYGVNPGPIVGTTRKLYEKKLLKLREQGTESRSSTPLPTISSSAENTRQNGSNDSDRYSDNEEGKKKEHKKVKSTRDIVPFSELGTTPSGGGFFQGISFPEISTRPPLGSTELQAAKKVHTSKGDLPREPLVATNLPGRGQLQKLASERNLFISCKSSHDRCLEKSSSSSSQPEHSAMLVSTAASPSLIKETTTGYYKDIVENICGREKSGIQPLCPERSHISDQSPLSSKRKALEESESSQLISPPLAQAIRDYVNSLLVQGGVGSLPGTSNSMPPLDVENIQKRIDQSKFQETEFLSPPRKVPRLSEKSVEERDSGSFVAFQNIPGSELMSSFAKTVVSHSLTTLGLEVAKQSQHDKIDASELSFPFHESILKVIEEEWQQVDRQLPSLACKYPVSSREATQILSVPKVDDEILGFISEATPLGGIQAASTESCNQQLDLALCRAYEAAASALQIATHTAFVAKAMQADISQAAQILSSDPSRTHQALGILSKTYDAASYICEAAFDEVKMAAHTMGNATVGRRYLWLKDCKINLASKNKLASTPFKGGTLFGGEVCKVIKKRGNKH
UniProt Q9NYL9: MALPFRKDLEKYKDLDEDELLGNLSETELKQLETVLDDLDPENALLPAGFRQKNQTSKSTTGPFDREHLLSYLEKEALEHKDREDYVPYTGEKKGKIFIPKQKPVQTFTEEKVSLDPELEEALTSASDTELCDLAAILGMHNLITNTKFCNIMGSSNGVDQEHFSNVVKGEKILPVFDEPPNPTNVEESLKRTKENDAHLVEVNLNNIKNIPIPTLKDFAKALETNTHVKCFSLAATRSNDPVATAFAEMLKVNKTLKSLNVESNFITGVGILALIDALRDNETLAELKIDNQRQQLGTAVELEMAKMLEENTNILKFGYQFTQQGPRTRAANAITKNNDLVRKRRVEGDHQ
UniProt Q9NVG8: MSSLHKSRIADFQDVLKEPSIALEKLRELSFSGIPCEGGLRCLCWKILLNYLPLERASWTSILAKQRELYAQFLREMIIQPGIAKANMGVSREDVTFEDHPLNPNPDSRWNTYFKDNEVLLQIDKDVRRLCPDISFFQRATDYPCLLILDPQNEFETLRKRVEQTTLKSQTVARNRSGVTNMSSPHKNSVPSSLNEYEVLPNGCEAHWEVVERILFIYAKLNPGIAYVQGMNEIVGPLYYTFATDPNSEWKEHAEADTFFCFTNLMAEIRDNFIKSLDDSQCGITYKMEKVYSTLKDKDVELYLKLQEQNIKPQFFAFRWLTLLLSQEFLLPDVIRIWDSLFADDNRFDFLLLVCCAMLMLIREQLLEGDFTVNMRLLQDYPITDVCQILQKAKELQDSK
UniProt P82094: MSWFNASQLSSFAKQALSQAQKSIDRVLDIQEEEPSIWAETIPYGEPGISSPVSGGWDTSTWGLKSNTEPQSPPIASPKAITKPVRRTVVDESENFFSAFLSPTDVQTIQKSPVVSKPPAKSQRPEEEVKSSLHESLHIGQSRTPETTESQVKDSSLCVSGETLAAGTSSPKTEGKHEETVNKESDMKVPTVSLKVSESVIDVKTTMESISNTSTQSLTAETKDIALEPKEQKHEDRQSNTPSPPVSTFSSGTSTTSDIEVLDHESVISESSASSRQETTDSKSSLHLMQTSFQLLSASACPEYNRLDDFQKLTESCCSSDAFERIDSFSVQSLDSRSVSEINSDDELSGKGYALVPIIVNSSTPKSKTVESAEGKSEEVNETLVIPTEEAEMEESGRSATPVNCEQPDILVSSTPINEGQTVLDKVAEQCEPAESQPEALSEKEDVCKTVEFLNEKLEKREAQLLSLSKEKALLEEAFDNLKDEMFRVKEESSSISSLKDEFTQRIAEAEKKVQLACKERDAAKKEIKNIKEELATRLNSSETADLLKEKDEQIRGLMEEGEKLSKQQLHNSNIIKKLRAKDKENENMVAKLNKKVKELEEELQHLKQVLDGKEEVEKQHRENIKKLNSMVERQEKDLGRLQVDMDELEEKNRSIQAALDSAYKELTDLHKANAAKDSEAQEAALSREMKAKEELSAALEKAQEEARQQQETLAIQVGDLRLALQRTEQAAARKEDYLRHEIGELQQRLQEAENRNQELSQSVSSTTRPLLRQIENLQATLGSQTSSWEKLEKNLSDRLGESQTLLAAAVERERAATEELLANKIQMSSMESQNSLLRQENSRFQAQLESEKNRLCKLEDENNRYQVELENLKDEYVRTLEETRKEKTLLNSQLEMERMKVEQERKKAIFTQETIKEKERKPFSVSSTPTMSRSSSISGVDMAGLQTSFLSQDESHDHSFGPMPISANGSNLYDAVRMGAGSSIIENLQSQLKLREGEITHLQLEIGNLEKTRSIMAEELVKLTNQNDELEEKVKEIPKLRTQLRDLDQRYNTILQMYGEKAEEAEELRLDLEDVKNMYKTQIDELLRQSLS
UniProt P33981: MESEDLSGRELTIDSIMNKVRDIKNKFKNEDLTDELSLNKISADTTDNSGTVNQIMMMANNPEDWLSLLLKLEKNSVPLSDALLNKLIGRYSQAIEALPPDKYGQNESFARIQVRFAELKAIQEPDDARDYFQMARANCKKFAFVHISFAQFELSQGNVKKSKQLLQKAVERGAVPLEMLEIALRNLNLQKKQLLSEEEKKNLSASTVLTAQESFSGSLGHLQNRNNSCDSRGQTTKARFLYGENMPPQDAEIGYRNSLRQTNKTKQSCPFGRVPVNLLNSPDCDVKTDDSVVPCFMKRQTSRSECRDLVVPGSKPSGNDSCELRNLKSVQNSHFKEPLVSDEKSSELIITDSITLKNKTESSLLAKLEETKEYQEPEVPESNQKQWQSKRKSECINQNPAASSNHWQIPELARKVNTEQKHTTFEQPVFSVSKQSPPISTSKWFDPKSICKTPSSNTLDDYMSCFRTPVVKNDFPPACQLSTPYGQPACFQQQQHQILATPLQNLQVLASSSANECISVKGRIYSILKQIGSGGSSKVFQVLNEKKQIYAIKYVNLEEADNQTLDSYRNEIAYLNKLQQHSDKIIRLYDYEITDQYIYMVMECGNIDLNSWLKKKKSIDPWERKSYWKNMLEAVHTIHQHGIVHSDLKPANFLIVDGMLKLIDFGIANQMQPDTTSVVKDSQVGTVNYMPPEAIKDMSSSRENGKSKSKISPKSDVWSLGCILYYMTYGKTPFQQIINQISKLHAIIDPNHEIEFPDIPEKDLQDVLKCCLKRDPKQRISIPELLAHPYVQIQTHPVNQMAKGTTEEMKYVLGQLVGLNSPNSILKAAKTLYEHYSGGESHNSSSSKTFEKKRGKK
UniProt P83876: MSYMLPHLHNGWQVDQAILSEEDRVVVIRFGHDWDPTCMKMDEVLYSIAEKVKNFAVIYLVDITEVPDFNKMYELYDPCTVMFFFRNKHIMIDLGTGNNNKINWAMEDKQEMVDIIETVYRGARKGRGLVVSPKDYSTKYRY
UniProt Q8TC07: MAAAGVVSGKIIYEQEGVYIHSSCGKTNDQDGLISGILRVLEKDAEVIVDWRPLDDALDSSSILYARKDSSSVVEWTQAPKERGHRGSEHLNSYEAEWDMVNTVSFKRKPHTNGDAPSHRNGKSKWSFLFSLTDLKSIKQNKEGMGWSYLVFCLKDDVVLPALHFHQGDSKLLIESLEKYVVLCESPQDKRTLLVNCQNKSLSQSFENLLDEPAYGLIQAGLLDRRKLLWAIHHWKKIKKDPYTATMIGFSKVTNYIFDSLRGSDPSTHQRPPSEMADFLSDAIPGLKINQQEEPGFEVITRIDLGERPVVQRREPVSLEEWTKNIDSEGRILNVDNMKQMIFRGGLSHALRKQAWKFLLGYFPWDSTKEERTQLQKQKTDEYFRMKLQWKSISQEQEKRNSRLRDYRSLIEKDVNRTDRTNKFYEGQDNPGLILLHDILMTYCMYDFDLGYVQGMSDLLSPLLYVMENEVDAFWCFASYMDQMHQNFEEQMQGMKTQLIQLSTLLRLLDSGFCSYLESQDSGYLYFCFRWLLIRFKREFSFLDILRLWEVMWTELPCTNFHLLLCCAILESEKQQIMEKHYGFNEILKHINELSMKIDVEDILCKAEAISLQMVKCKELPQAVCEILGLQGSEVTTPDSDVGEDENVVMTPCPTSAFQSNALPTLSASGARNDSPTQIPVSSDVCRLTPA
UniProt Q15642: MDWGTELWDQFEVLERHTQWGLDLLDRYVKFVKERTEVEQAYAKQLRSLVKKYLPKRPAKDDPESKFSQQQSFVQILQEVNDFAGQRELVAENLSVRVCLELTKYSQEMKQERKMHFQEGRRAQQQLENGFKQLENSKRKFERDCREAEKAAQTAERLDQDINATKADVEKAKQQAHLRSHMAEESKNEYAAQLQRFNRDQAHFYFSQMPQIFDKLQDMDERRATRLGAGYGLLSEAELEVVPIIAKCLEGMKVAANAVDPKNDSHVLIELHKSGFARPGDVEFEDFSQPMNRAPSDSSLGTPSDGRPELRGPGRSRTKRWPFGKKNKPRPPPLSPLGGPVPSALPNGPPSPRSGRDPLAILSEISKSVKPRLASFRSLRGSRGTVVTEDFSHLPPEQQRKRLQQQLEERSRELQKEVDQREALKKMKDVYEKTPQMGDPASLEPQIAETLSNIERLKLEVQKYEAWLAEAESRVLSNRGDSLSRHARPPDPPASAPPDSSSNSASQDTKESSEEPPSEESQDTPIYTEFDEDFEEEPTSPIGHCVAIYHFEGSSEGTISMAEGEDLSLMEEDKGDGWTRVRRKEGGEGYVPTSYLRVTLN

Compound: Nc1nc2c(ncn2[C@@H]2O[C@H](COP(=O)(O)OP(=O)(O)OP(=O)(O)O)[C@@H](O)[C@H]2O)c(=O)[nH]1
Assay: dose-dependent thermal stabilisation call (2D-TPP, DLPTP, 10% FDR) (binary (1 = stabilised)); higher = stabilised by the compound
Conditions: system: Jurkat gel-filtered lysate; concentration range 1-500 µM

Target | dose-dependent thermal stabilisation call
THOC1 (UniProt Q96FV9) | active: 1
TJP2 (UniProt Q9UDY2) | inactive: 0
UBA6 | inactive: 0
TAOK1 (UniProt Q7L7X3) | inactive: 0
UAP1 (UniProt Q16222) | inactive: 0
TRIM32 (UniProt Q13049) | inactive: 0
TBCA (UniProt O75347) | inactive: 0
TARDBP (UniProt Q13148) | active: 1
TNRC6C (UniProt Q9HCJ0) | inactive: 0
TRAF5 (UniProt O00463) | active: 1
UBASH3B (UniProt Q8TF42) | inactive: 0
TXNDC17 (UniProt Q9BRA2) | inactive: 0
TWF1 (UniProt Q12792) | inactive: 0
TGS1 (UniProt Q96RS0) | active: 1
TMPO (UniProt P42166) | inactive: 0
TMOD3 (UniProt Q9NYL9) | inactive: 0
TBC1D13 (UniProt Q9NVG8) | inactive: 0
TMF1 (UniProt P82094) | inactive: 0

Looked up one by one from the entries so far, 2 records:
Target | dose-dependent thermal stabilisation call
TWF1 (UniProt Q12792) | inactive: 0
THOC1 (UniProt Q96FV9) | active: 1

Carrying on:

Target | dose-dependent thermal stabilisation call
TUBB (UniProt P07437) | inactive: 0
TMA16 (UniProt Q96EY4) | inactive: 0
TTK (UniProt P33981) | inactive: 0
TXNL4A (UniProt P83876) | inactive: 0
TBC1D15 (UniProt Q8TC07) | inactive: 0
TRIP12 (UniProt Q14669) | inactive: 0
TRAPPC11 (UniProt Q7Z392) | inactive: 0
TDG (UniProt Q13569) | active: 1
TPT1 (UniProt P13693) | inactive: 0
TFE3 (UniProt P19532) | inactive: 0
TK1 (UniProt P04183) | inactive: 0
TUFM (UniProt P49411) | active: 1
TSEN2 (UniProt Q8NCE0) | active: 1
TBCEL (UniProt Q5QJ74) | active: 1
TSN (UniProt Q15631) | inactive: 0
TRAPPC6A (UniProt O75865) | inactive: 0
TGDS (UniProt O95455) | inactive: 0
TRIP10 (UniProt Q15642) | inactive: 0
